{"sequences": {"note": "Chains of the proteins cited; added tags and fusions are not shown. Lines headed by an entry give the natural chain unless they say otherwise; changes in a name come on top.", "UniProt Q8VEL2": "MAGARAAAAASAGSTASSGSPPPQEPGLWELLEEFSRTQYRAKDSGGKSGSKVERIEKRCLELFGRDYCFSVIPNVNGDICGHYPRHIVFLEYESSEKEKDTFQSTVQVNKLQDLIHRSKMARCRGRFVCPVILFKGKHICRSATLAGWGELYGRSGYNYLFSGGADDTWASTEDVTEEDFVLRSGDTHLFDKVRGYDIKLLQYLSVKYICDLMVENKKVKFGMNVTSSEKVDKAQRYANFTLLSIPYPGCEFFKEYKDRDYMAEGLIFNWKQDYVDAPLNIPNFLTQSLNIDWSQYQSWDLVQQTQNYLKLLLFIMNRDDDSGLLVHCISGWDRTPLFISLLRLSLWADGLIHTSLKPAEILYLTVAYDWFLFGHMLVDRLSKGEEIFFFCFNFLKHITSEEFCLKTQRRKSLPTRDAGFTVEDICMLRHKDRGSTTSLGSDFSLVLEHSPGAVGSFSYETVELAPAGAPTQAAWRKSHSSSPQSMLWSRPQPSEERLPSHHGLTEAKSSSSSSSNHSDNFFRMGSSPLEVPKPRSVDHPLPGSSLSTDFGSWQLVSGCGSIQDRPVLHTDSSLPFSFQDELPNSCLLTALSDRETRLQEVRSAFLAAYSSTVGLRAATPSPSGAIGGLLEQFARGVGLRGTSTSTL", "UniProt Q8R5K2": "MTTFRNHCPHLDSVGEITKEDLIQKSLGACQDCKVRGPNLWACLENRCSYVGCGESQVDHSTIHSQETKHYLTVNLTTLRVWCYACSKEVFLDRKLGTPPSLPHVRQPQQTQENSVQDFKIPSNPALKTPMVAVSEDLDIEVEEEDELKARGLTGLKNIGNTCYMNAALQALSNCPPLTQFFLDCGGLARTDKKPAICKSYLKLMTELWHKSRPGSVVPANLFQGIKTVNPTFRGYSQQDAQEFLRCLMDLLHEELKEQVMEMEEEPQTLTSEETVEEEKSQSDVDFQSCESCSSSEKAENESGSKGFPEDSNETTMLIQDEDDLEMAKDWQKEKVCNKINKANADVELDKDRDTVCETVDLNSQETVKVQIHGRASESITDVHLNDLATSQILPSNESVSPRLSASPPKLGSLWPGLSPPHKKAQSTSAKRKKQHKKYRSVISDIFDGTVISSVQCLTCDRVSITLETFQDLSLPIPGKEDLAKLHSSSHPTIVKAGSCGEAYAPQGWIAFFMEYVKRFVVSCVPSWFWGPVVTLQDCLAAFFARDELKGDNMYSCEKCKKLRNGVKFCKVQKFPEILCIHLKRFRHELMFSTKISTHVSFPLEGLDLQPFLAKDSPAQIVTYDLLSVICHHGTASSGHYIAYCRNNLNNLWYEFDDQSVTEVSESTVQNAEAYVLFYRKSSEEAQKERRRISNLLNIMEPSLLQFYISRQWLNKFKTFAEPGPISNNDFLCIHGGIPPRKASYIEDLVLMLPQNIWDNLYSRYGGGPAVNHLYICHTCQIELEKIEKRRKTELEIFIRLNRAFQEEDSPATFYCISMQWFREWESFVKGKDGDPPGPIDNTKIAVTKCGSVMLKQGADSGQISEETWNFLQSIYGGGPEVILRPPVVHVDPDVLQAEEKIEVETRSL", "UniProt Q8VCR7": "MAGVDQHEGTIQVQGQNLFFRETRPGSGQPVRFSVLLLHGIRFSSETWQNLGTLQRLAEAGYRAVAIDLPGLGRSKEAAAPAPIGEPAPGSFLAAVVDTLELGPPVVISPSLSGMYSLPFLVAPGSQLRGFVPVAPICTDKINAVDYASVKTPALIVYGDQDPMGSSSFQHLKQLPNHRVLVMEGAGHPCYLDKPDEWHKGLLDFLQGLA", "UniProt Q8R310": "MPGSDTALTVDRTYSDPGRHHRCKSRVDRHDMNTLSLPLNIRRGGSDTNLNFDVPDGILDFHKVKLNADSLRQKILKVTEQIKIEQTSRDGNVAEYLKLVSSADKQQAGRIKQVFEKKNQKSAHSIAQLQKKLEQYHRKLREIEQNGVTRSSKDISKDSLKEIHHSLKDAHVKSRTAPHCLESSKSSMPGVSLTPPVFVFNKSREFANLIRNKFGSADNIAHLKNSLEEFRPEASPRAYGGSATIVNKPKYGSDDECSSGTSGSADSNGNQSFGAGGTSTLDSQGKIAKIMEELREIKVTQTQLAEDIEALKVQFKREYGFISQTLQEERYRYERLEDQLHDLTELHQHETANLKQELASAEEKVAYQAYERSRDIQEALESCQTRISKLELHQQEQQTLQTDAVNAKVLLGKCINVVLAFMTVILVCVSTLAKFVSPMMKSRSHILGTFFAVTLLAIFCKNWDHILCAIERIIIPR", "UniProt Q8VE09": "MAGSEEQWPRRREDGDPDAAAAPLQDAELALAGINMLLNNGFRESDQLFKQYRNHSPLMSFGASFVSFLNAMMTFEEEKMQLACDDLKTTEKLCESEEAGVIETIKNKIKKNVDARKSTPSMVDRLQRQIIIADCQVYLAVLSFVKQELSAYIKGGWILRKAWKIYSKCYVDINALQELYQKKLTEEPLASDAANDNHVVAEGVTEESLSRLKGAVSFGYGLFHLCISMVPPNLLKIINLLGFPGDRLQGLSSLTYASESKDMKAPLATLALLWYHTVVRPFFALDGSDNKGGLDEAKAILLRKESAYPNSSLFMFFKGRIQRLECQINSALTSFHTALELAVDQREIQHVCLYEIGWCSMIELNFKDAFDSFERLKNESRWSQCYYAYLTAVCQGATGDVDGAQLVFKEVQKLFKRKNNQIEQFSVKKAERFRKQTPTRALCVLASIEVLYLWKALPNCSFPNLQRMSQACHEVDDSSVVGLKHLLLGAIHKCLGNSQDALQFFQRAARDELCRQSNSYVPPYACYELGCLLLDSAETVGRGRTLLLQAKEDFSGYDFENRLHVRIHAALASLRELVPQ", "UniProt Q8VCX6": "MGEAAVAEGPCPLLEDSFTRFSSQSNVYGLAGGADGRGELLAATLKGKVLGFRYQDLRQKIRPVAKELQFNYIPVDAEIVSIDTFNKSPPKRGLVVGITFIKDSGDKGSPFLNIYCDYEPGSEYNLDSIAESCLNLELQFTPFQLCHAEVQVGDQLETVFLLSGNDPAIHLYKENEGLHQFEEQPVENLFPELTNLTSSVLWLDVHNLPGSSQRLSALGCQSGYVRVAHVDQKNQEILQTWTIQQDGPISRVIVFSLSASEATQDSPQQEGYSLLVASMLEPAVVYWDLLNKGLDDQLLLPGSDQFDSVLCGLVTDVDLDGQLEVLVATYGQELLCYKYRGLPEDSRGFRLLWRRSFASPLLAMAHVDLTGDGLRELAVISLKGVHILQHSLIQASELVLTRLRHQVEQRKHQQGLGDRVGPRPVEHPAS", "UniProt Q8VDY9": "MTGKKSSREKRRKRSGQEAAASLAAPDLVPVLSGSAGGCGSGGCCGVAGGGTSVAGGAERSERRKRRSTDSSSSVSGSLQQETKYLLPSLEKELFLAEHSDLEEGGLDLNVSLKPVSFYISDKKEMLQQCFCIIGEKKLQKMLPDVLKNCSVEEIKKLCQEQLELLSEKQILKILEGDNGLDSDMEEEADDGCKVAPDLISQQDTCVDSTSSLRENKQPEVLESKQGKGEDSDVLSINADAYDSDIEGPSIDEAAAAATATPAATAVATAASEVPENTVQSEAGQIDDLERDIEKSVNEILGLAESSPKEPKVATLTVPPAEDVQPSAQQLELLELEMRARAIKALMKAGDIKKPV", "UniProt Q8R3V5": "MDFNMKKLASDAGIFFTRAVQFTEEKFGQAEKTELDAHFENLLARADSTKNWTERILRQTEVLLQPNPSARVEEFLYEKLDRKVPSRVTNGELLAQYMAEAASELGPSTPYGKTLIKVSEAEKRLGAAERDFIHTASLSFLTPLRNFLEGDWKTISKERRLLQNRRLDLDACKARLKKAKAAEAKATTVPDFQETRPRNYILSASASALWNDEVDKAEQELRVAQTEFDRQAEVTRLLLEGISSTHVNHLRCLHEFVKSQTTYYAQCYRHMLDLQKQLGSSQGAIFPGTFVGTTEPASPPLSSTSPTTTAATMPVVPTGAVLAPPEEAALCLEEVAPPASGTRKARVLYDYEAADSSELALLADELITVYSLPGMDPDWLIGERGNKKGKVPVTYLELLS", "UniProt Q8VE70": "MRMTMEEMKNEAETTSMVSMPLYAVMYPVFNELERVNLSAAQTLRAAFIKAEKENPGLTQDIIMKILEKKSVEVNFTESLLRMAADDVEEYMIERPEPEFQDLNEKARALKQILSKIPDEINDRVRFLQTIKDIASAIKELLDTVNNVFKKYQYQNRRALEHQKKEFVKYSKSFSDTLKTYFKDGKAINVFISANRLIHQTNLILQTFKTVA", "UniProt Q8R3C0": "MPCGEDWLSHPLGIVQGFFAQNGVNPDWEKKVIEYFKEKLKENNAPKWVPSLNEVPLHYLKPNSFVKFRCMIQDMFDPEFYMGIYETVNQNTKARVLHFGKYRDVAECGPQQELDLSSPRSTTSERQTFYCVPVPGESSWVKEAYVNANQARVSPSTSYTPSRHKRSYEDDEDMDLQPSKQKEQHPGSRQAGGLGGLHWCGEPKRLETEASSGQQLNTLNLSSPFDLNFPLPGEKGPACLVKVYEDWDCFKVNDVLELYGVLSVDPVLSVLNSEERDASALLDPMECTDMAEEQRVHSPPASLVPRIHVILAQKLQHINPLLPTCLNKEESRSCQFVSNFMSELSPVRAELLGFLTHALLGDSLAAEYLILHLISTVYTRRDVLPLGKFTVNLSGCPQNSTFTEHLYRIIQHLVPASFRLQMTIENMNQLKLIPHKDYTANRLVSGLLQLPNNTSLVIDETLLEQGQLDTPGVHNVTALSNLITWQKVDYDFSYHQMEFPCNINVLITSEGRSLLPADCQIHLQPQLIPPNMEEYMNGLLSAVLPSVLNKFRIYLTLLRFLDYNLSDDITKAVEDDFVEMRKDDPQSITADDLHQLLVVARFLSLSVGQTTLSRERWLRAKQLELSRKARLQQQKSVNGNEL", "UniProt Q8VC12": "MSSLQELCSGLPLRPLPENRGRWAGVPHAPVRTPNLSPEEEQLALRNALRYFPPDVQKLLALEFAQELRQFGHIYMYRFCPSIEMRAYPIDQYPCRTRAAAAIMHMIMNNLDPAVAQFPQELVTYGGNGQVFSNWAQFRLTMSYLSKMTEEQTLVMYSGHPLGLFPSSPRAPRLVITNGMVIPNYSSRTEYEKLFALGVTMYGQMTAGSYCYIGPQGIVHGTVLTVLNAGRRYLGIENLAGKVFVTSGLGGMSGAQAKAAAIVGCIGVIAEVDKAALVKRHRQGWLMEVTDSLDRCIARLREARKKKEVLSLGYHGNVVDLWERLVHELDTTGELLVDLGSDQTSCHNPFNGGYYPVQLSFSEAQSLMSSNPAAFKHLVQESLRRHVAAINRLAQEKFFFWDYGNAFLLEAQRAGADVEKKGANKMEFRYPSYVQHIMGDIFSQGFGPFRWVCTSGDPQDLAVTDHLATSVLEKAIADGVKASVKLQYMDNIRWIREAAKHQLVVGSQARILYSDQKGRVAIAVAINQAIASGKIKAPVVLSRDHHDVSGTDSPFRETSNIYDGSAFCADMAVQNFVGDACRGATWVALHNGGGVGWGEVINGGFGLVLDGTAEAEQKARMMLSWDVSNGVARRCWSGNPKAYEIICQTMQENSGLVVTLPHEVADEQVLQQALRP", "UniProt Q8VD57": "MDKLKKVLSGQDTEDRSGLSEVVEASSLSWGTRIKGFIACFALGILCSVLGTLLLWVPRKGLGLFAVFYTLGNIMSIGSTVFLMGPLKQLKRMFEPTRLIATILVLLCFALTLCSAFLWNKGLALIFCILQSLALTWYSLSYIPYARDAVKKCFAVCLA", "UniProt Q8VEJ1": "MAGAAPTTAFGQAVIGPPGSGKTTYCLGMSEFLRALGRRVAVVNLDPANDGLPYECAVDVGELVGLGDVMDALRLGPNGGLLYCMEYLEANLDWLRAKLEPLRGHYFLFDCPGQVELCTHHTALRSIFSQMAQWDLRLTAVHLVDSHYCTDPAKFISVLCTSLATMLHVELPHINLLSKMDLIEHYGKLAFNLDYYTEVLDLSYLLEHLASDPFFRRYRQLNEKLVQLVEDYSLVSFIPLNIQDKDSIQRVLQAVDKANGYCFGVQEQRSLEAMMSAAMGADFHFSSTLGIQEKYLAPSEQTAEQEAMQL", "UniProt Q8VBT0": "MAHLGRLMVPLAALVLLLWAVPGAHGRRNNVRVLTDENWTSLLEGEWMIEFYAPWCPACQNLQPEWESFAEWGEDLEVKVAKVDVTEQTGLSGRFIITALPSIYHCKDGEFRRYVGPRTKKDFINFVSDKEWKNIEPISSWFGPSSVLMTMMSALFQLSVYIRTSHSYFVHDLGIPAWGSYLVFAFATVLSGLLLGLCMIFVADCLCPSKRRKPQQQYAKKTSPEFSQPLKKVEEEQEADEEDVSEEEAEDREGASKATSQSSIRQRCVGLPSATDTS", "UniProt Q8VC65": "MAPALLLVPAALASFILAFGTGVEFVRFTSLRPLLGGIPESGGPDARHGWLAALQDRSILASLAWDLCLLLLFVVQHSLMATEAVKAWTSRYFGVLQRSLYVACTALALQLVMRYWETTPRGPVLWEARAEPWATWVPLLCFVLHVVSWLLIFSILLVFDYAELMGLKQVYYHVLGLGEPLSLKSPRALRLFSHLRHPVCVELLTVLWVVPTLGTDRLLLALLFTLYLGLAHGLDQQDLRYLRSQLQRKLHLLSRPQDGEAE"}, "source": "the supplement of paper PMC12819154", "about": "“High-throughput peptide-centric local stability assay extends protein–ligand identification to membrane proteins, tissues and bacteria” (Nature Structural & Molecular Biology, 2025)", "note": "The list shows a part of the results. Most entries show no effect beyond the scatter of the controls.", "data": [{"compound": "CN[C@@H]1C[C@H]2O[C@@](C)([C@@H]1OC)n1c3ccccc3c3c4c(c5c6ccccc6n2c5c31)C(=O)NC4 [staurosporine]", "assay": "log2 fold change of tryptic peptide abundance, ligand vs vehicle (limited proteolysis) (log2 ratio); higher = more trypsin-susceptible (destabilized)", "conditions": "ligand concentration: 20 uM; sample: mouse liver crude lysate; replicate design: treated separately", "values": [{"target": "UniProt Q8VEL2 (peptide sequence: DTFQSTVQVNK, peptide start residue: 101)", "log2 fold change": 0.664}, {"target": "UniProt Q8R5K2 (peptide sequence: LGSLWPGLSPPHK, peptide start residue: 411)", "log2 fold change": -0.218}, {"target": "UniProt Q8VDQ9 (peptide sequence: DYILNKR, peptide start residue: 248)", "log2 fold change": -0.232}, {"target": "UniProt Q8R361 (peptide sequence: GSHGTSSSEAVPGQEELSK, peptide start residue: 390)", "log2 fold change": 0.065}, {"target": "UniProt Q8VCR7 (peptide sequence: VLVMEGAGHPCYLDKPDEWHK, peptide start residue: 180)", "log2 fold change": -0.063}, {"target": "UniProt Q8VCC1 (peptide sequence: EENMGQYIEYKDQIK, peptide start residue: 197)", "log2 fold change": 0.223}, {"target": "UniProt Q8R310 (peptide sequence: AYGGSATIVNKPK, peptide start residue: 238)", "log2 fold change": 0.296}, {"target": "UniProt Q8VE09 (peptide sequence: KSTPSMVDR, peptide start residue: 117)", "log2 fold change": -0.318}, {"target": "UniProt Q8R3L8 (peptide sequence: EFLTEEEPDEKGDKK, peptide start residue: 357)", "log2 fold change": -0.92}, {"target": "UniProt Q8VCX6 (peptide sequence: KHQQGLGDR, peptide start residue: 411)", "log2 fold change": -0.252}, {"target": "UniProt Q8R5K4 (peptide sequence: MGPAPAGEQHR, peptide start residue: 12)", "log2 fold change": -0.875}, {"target": "UniProt Q8VDY9 (peptide sequence: ENKQPEVLESK, peptide start residue: 215)", "log2 fold change": -0.132}, {"target": "UniProt Q8R3V5 (peptide sequence: HMLDLQK, peptide start residue: 270)", "log2 fold change": 0.23}, {"target": "UniProt Q8R5A3 (peptide sequence: ASGIYYVPK, peptide start residue: 339)", "log2 fold change": -0.375}, {"target": "UniProt Q8VBT9 (peptide sequence: QCDTAGKQESIAVR, peptide start residue: 174)", "log2 fold change": 0.72}, {"target": "UniProt Q8VE70 (peptide sequence: VNLSAAQTLR, peptide start residue: 36)", "log2 fold change": -0.0925}, {"target": "UniProt Q8R3C0 (peptide sequence: AVEDDFVEMR, peptide start residue: 572)", "log2 fold change": 0.148}, {"target": "UniProt Q8VC12 (peptide sequence: WAGVPHAPVR, peptide start residue: 23)", "log2 fold change": 0.535}, {"target": "UniProt Q8VDD9 (peptide sequence: HNAAQMNGKPESSSVVR, peptide start residue: 1489)", "log2 fold change": -0.482}, {"target": "UniProt Q8VD57 (peptide sequence: KVLSGQDTEDR, peptide start residue: 6)", "log2 fold change": -0.174}, {"target": "UniProt Q8VEJ1 (peptide sequence: MDLIEHYGK, peptide start residue: 180)", "log2 fold change": 0.117}, {"target": "UniProt Q8VE91 (peptide sequence: SHKDDSELDFSALCPK, peptide start residue: 259)", "log2 fold change": 0.175}, {"target": "UniProt Q8VBT0 (peptide sequence: TSPEFSQPLKK, peptide start residue: 222)", "log2 fold change": 0.153}, {"target": "UniProt Q8VC65 (peptide sequence: KLHLLSRPQDGEAE, peptide start residue: 249)", "log2 fold change": 0.103}, {"target": "UniProt Q8VBW5 (peptide sequence: DHMCHPHGIMIIEDPTTLNKPEK, peptide start residue: 425)", "log2 fold change": 0.463}]}]}
